Results: article PMC4549032
Results are given in words; binding and its absence hold for the method and conditions named. In cells and extracts the contact can be indirect. Some binding calls cover weakened binding; strength is not graded here.

Amino acid sequences for entries named in this document (tags omitted).
UniProt Q8VI67: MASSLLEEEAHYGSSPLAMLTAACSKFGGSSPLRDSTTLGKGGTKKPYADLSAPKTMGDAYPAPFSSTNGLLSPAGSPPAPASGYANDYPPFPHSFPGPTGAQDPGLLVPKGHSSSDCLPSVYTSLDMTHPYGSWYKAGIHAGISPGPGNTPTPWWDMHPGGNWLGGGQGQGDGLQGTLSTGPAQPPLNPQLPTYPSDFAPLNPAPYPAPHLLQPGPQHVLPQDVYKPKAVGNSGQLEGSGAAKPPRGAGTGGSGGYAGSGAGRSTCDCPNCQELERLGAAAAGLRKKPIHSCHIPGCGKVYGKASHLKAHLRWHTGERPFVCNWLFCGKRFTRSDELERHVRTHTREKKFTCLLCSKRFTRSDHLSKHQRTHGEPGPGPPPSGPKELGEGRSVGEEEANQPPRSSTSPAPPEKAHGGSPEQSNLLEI
UniProt Q9WUD1: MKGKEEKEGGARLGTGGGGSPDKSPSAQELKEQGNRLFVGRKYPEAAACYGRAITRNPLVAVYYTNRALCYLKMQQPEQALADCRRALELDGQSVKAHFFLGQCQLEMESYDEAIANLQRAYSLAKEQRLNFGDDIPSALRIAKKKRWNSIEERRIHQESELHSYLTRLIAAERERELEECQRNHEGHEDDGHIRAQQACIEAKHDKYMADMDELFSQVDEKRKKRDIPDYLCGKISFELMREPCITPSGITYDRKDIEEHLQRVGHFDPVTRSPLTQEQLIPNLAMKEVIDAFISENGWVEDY

Experiments:
[1] = target: Flag-tagged Osx (osterix), wild type (mouse) (UniProt Q8VI67); assay: co-IP; 293T cells co-expressing Flag-Osx and Myc-CHIP, lysates 48 h after transfection; IP with anti-Flag, blot with anti-Myc; with 20 uM MG132 for 6 hrs
[2] = target: Flag-tagged Osx (osterix), wild type (mouse) (UniProt Q8VI67); assay: co-IP; Flag-Osx WT or K55R and K386R with Myc-CHIP; blot read after short and long exposure; told only in the discussion, set-up not described
[3] = target: endogenous Osx (osterix) of MC3T3-E1 cells (mouse (endogenous in MC3T3-E1)) (UniProt Q8VI67); assay: co-IP; MC3T3-E1 cells with Myc-CHIP; endogenous Osx precipitated with anti-Osx antibody, Myc-CHIP found in the precipitate
[4] = target: endogenous Osx (osterix) of MC3T3-E1 cells (mouse (endogenous in MC3T3-E1)) (UniProt Q8VI67); assay: co-IP; endogenous CHIP and endogenous Osx in MC3T3 cells
[5] = target: Flag-tagged Osx (osterix), wild type (mouse) (UniProt Q8VI67); assay: co-IP; 293T cells transfected with Flag-Osx and HA-CHIP; IP with anti-Flag, blot with anti-HA

Myc-tagged CHIP (C terminus of Hsc70-interacting protein), in HEK293T cells (from UniProt Q9WUD1 1-304) (enzyme)
binding [1]: binds | binding [2]: binds

Myc-tagged CHIP (C terminus of Hsc70-interacting protein), in MC3T3-E1 cells (from UniProt Q9WUD1 1-304) (enzyme)
binding [3]: binds

endogenous CHIP (C terminus of Hsc70-interacting protein) of MC3T3 cells (from UniProt Q9WUD1 1-304) (enzyme)
binding [4]: binds

HA-tagged CHIP (C terminus of Hsc70-interacting protein), in 293T cells (from UniProt Q9WUD1 1-304) (enzyme)
binding [5]: binds
